Measured data: PubChem BioAssay AID1259405 (NCATS, 2018)

- Assay: 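Knock-downs that lift recombinant protein yield in hamster ovary cells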 (primary screen)
- Cells: Chinese hamster CHO-K1 ovary cells with stable secreted eGFP expression
- Reagents: single siRNA against mouse genes, 0.8 pmol siRNA per well (2 µl of 400 nM stock)
- Timing: 3 days
- Read-out: 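Per-well intracellular GFP measured by laser scanning cytometry, plus viability from ATP luminescence, each relative to plate median of non-targeting control wells, in %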
- Reading the numbers: GFP, % of control: higher = more GFP per well, higher productivity; viability (ATP), % of control: higher = more viable cells (more ATP)
- Call rule: 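a knock-down is called active if GFP reaches 120% or more of non-targeting control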
The whole screen tested about 50,000 reagents; this is a part drawn at random. About 4,000 of them (8%) were called active. 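Mouse siRNA library applied to hamster cells; one well for each siRNA.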 Entries without a mark were called inactive. Reagents against one gene are numbered here.

no.	gene	siRNA no.	GFP, % of control	viability (ATP), % of control
1	Ylpm1	1	41.6	84.8
2	Ylpm1	2	61.7	72.8
3	Ylpm1	3	36.7	73.8
4	Rad23b	1	92	65
5	Rad23b	2	68.4	67.7
6	Rad23b	3	75.9	59.4
7	Pthlh	1	74.8	76.5
8	Pthlh	2	52.1	68.6
9	Pthlh	3	136 (active)	65.7
10	Kdm6b	1	72.3	55.1
11	Kdm6b	2	84.1	71.6
12	Kdm6b	3	78.6	77.2
13	Lyz1	1	80.7	76.9
14	Lyz1	2	71.1	80.7
15	Lyz1	3	93.4	78.7
16	Rnf44	1	130 (active)	103
17	Rnf44	2	65.7	66.9
18	Rnf44	3	70.3	67.1
19	Nfat5	1	114	116
20	Nfat5	2	114	95
21	Nfat5	3	95.4	118
22	Csnk2b	1	50.5	96.3
23	Csnk2b	2	85.6	85.1
24	Chrna3	1	95.1	91.8
25	Chrna3	2	43.9	40.9
26	Chrna3	3	82.9	86.3
27	Ormdl2	1	76.5	79.9
28	Ormdl2	2	134 (active)	60.8
29	Ormdl2	3	56.8	67.6
30	Semp2l2a	1	63.5	54.1
31	Semp2l2a	2	39.3	33.8
32	Semp2l2a	3	71.3	91
33	Niban2	1	141 (active)	82.4
34	Niban2	2	57.5	75.9
35	Niban2	3	96	103
